Here are results for 3 molecules from patent US20090304721A1, “TOXIN […] RECEPTOR ANTIBODIES” (priority 2005, published 2009).

Amino acid sequences for entries named in this document (tags omitted). Residues count along the entry.
UniProt D3ZBN3, residues 23-977: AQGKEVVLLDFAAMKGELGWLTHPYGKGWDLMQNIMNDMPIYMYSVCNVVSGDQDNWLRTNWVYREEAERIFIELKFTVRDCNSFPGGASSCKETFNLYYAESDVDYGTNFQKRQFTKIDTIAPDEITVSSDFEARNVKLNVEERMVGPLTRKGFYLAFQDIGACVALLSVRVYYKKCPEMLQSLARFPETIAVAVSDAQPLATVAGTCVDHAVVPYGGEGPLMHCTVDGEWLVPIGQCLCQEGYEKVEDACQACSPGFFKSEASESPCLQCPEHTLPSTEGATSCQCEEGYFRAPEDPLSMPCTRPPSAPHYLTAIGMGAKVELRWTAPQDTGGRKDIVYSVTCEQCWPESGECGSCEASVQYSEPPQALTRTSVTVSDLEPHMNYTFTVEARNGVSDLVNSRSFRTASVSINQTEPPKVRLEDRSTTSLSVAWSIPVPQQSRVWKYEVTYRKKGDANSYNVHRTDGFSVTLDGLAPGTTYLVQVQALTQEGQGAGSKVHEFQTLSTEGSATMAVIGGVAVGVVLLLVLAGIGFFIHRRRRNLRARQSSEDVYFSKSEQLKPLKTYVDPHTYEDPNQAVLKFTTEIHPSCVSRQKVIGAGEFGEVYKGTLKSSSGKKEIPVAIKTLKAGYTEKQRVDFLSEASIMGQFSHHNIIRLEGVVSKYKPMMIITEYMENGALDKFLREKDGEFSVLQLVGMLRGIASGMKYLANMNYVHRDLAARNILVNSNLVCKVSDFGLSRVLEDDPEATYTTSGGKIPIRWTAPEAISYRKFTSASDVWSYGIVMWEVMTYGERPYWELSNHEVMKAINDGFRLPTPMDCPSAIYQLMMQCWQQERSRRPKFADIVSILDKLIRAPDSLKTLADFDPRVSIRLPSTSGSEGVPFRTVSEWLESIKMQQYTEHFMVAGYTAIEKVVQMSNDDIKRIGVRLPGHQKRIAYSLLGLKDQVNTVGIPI
UniProt P29317, residues 24-976: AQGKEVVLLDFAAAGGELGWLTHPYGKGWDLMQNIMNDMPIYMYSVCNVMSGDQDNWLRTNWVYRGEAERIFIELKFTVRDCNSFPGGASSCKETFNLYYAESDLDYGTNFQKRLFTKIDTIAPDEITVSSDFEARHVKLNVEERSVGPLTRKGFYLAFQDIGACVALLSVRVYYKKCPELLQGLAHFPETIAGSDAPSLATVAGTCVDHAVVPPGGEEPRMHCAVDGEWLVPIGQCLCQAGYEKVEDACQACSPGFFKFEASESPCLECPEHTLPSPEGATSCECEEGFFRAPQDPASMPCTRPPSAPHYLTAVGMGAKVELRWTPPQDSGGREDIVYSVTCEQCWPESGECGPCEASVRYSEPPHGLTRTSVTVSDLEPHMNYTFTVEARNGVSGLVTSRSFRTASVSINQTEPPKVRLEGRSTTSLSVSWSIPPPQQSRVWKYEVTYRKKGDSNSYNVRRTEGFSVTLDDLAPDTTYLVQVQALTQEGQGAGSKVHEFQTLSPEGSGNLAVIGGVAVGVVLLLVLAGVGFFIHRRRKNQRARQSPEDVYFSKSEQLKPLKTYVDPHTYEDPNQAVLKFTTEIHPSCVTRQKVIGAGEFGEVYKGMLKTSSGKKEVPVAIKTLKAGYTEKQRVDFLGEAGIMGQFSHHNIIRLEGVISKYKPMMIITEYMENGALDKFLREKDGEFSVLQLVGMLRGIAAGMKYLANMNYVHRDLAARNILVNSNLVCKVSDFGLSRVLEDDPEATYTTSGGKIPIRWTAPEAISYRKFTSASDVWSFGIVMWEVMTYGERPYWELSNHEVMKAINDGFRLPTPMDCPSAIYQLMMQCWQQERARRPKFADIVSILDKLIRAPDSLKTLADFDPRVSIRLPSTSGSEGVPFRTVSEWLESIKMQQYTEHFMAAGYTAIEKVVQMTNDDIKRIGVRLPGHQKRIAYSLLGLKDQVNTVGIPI

Assay [1] has as its target rat EphA2 expressed on cells (rat) (UniProt D3ZBN3). In words: flow cytometry on tumor cell lines, 1 ug antibody, PE anti-human IgG.
In assay [2] the target is human EphA2 expressed on cells (human) (UniProt P29317). Nature of the assay: immunofluorescence of PC3 cells labeled with 50 ug/ml antibody at 4 C, fixed, permeabilized, AlexaFluor 488 secondary antibody.

Results are given in words; binding and its absence hold for the method and conditions named. Some binding calls cover weakened binding; strength is not graded here.

B1: anti-EphA2 antibody 3F2 (antibody, V domains shown)
VH: EVQLVESGGGVVRPGGSLRLSCAASGFTVSDYSMNWVRQAPGKGLEWIGFIRNKANAYTTEYSASVKGRFTISRDDSKNTLYLQMNSLKTEDTAVYYCTTYPRYHAMDSWGQGTMVTVSS
VL: AIQLTQSPSSLSASVGDRVTITCRASQSISNNLHWYLQKPGQSPQLLIYYGFQSISGVPSRFSGSGSGTDFTLTISSLQPEDFATYYCQQANSWPLTFGGGTKLEIK
With B1, the binding entry in assay [1] was “binds”.

B2: anti-EphA2 antibody 1H3 (antibody, V domains shown)
VH: EVQLLESGGGLVQPGGSLRLSCAASGFTFSMYAMRWVRQAPGKGLEWVSVIGPSGGWTPYADSVKGRFTISRDNSKNTLYLQMNSLRAEDTAVYYCARDRGIYGMDVWGQGTTVTVSS
VL: DIQMTQSPSFLSASVGDRVTITCRASQGISSYLAWYQQKPGKAPKLLIYAASTLQSGVPSRFSGSGSGTEFTLTISSLQPEDFATYYCLELNNYPFTFGLGTKVHIK
For B2, in assay [1], the binding result is “binds”.

B3: anti-EphA2 antibody G5 (antibody, V domains shown)
VH: QMQLVQSGPEVKKPGTSVKVSCKASGFTFTDYSMNWVRQARGQRLEWIGFIRNKANDYTTEYSASVKGRVTITRDMSTSTAYMELSSLRSEDTAVYYCARYPRYHAMDSWGQGTSVTVSS
VL: DIQMTQSPSSLSASVGDRVTITCRASQSISNNLHWYQQKPGKAPKLLIKYVFQSISGVPSRFSGSGSGTDFTFTISSLQPEDFATYYCQQSNSWPLTFGGGTKVEIKG
Turning to B3, the binding entry in assay [2] is reported as “binds”.
